# Assay results taken from the supplement of paper PMC4604168 (melanoma cell lines).
# This is one part of the list. Single values are uncertain, as repeats are few or missing.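 The apoptosis fraction was the count of cleaved-PARP antibody-stained nuclei relative to all DNA-stained nuclei, imaged in 1,536-well plates. Screening doses were set so most cells survived, and baseline and induced cleaved-PARP levels vary greatly across cell lines.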
# What was measured:
# Assay in all cases: cleaved PARP positive nuclei fraction relative to DMSO control; melanoma cells; higher = more apoptosis
# Conditions in all cases: library dose: low library concentration; 72 h
# [1] = system: 501Mel
# [2] = system: A101D
# [3] = system: A2058
# [4] = system: A375
# [5] = system: C32
# [6] = system: CBRC008 (line from a melanoma biopsy)
# [7] = system: CBRC013 (line from a melanoma biopsy)
# [8] = system: CBRC014 (line from a melanoma biopsy)
# [9] = system: CBRC016 (line from a melanoma biopsy)
# [10] = system: CBRC017 (line from a melanoma biopsy)
# [11] = system: COLO792
# [12] = system: COLO800
# [13] = system: COLO829
# [14] = system: G361
# [15] = system: IPC-298
# [16] = system: IST-MEL1
# [17] = system: LB2518-MEL
# [18] = system: LOXIMVI
# [19] = system: MEL-HO
Compound,cleaved PARP positive nuclei fraction [1] [%],cleaved PARP positive nuclei fraction [2] [%],cleaved PARP positive nuclei fraction [3] [%],cleaved PARP positive nuclei fraction [4] [%],cleaved PARP positive nuclei fraction [5] [%],cleaved PARP positive nuclei fraction [6] [%],cleaved PARP positive nuclei fraction [7] [%],cleaved PARP positive nuclei fraction [8] [%],cleaved PARP positive nuclei fraction [9] [%],cleaved PARP positive nuclei fraction [10] [%],cleaved PARP positive nuclei fraction [11] [%],cleaved PARP positive nuclei fraction [12] [%],cleaved PARP positive nuclei fraction [13] [%],cleaved PARP positive nuclei fraction [14] [%],cleaved PARP positive nuclei fraction [15] [%],cleaved PARP positive nuclei fraction [16] [%],cleaved PARP positive nuclei fraction [17] [%],cleaved PARP positive nuclei fraction [18] [%],cleaved PARP positive nuclei fraction [19] [%]
"CC(C)C[C@H](NC(=O)[C@H](Cc1ccccc1)NC(=O)c1cnccn1)B(O)O [Bortezomib] + O=C(Nc1cccc(Cl)c1)Nc1ncc(CCNc2ncnc3ccsc23)s1 [SNS314] (first compound 0.001 µM, partner dose 0.0008 µM)",379,156,109,65.4,134,2140,106,149,365,166,91.5,157,167,2440,224,195,91.3,79.6,224
"C[C@@H](Oc1cc(-c2cnn(C3CCNCC3)c2)cnc1N)c1c(Cl)ccc(F)c1Cl [Crizotinib] + CN(C)S(=O)(=O)c1ccc2c(c1)/C(=C/c1cc3c([nH]1)CCCC3)C(=O)N2 [SU6656] (first compound 0.2 µM, partner dose 0.4 µM)",79.3,66.7,37.8,93.1,106,65,131,102,57.3,100,79.1,51.2,155,149,82.7,67.9,110,44.6,35.2
"C=C(c1ccc(C(=O)O)cc1)c1cc2c(cc1C)C(C)(C)CCC2(C)C [Bexarotene] + O=C(CCCCCCC(=O)Nc1ccccc1)NO [vorinostat] (first compound 2 µM, partner dose 0.08 µM)",40.8,97.2,86.3,109,158,339,73.4,92.3,227,111,79.6,84.4,91.3,86.7,48.1,49.1,52,53.7,69.3
"Nc1ncn([C@H]2C[C@H](O)[C@@H](CO)O2)c(=O)n1 [decitabine] + NC(=O)Nc1cc(-c2cccc(F)c2)sc1C(=O)N[C@H]1CCCNC1 [AZD7762] (first compound 0.1 µM, partner dose 0.02 µM)",69,105,181,204,181,64.5,104,88.3,61.9,106,88.5,241,104,90.9,117,20.4,48.4,130,404
